± gives the half width of the 95% confidence interval. For many entries, trypsin and chymotrypsin gave values far apart.
Assays:
[1] = folding stability dG unfold from trypsin proteolysis; higher = more stable
How it was run: (§1)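 Designed mini-proteins (under 80 residues, no cysteine) in a PA-tagged cDNA display construct were digested with trypsin and chymotrypsin. Each protease was used at 11 concentrations (threefold dilutions) plus a no-protease condition, followed by sequencing. K50 was inferred by Bayesian fitting of sequencing counts, and unfolding free energy was derived against a sequence-predicted unfolded-state K50 and a shared folded-state K50, per protease or combined. Only designs with AlphaFold2 dimer inter-PAE above 15 were kept.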

[2] = folding stability dG unfold from chymotrypsin proteolysis; higher = more stable
How it was run: as §1

[3] = folding stability dG unfold (combined trypsin and chymotrypsin); higher = more stable
How it was run: as §1

Sequence | folding stability dG unfold [1] | folding stability dG unfold [2] | folding stability dG unfold [3]
SDNFQPDMTFPVTEIGDDKVTMKYNGKPYYIPTSKITSPNVTVKITDGTVSEVSSPSPSPLPPENIKKLSSA [r9_842_JUSTAS] | -0.705 ± 0.24 kcal/mol | -0.293 ± 0.35 kcal/mol | -0.263 ± 0.42 kcal/mol
SAGGSAGGSAGGKISENALPGQTVTWEWYIMIMTMKRNPNGEREMEMHWIPVEFTVKVPSAGGSAGGSAGGS [r10_1135_TrROS] | 2.09 ± 0.075 kcal/mol | 4.12 ± 0.14 kcal/mol | 3.46 ± 0.3 kcal/mol
SAGGKKVKIKVTIVIKVEPGESVEEIAKKLAEELGLKVEVKVEVVKRKDGSLYVVIEVEIELPEELKPSAGG [r13_590_TrROS_Hall] | 2.3 ± 0.16 kcal/mol | 3.18 ± 0.24 kcal/mol | 2.85 ± 0.56 kcal/mol
SAGGSAGGSAGPPPPTVTLTFKLEDGYYVELSYNLDTDEITVKVYNVKTNEKVAEFTFKLSAGGSAGGSAGG [r11_928_TrROS_Hall] | 1.04 ± 0.14 kcal/mol | 4.94 ± 0.16 kcal/mol | 4.55 ± 0.44 kcal/mol
SRIKISIFRPGKIIPEIPIKVDSVEEAVEKVLEYIRKFPPNAPYYIMIEVEHTDPANGQKQEGTVHIPIKSA [r9_245_TrROS] | 2.22 ± 0.059 kcal/mol | 4 ± 0.048 kcal/mol | 3.39 ± 0.12 kcal/mol
SAGGSAGGSDTVTLTILVRDPATNRWYLVEVELRRNPDGSLTARARVYDLDTGEWHEETFTLPSAGGSAGGS [r20_229_TrROS_Hall] | 2.9 ± 0.16 kcal/mol | 5.29 ± 0.079 kcal/mol | 5.04 ± 0.19 kcal/mol
SAGGSAGGSAGDEKYTLTVTIPVPKNAPVLVGAEKGYEVIDLNPDAPVEEGYITVKVEFGSAGGSAGGSAGG [r11_701_TrMRF] | -0.376 ± 0.086 kcal/mol | -0.833 ± 0.14 kcal/mol | -0.391 ± 0.15 kcal/mol
SSSTVTVTVTFPDGTVVTVDFTGSLAEVEAAVREWVRQYAAEQGLDPREVRVTITFADDGTTRERTLPLRSA [r9_1193_JUSTAS] | 0.921 ± 0.043 kcal/mol | 2.42 ± 0.035 kcal/mol | 2.04 ± 0.086 kcal/mol
SMTVSNPRGKTVTVTVTVTVDPNKKSVTVPVTIRTAGEELTFTFTVPKGVNKPVTFSLTVPLPPGSSVISSA [r9_973_JUSTAS] | 3 ± 0.093 kcal/mol | 4.02 ± 0.059 kcal/mol | 3.63 ± 0.089 kcal/mol
SAGGSAGGSAGGEPIPTKTIEVDEATGTVTVTVTFPPPNETVTVTRPAPPDVSLEEVLASAGGSAGGSAGGS [r10_676_JUSTAS] | 1.07 ± 0.17 kcal/mol | 1.58 ± 0.15 kcal/mol | 1.59 ± 0.15 kcal/mol
SAGWNLQVNVERLPNGYVRITIMFTPDMPVEELAKELKKNFGVEVEVEFDPENGMVTVEIEIPLPPGAKSAG [r5_742_TrROS] | 1.51 ± 0.024 kcal/mol | 4.33 ± 0.11 kcal/mol | 3.69 ± 0.12 kcal/mol
SAGGMTLTLKVDSEEEAKEAVKKLLEEKGINAKLEKITVTKHTVVHPESEAVETVYTVTVDLVIEPKSAGGS [r16_587_JUSTAS] | 1.23 ± 0.14 kcal/mol | 3.77 ± 0.11 kcal/mol | 3.22 ± 0.21 kcal/mol
SIGGNGLSFMFPVKVTFDMWSMNPNGNMQPVGKMKFEVYVMIRIIPIEDLQKLQKAKEKPPPDPDDKEKQSA [r9_1192_TrROS] | 2.17 ± 0.18 kcal/mol | 4.35 ± 0.084 kcal/mol | 3.65 ± 0.27 kcal/mol
SAGGSAGGSAGGKEKKVYEVEIEITFYNKNGKEIAKAKAVVLPDGTIYIKLPNGKWFKLSAGGSAGGSAGGS [r10_972_TrROS_Hall] | 2.18 ± 0.041 kcal/mol | 4.26 ± 0.079 kcal/mol | 3.78 ± 0.18 kcal/mol
SAGGGYGWLMFSVPIKFEFNFRDPDGQPIGPWRMEITIMVYAPVPLPPPPPPKEEKVDPNDKNDEDADSAGG [r13_508_TrROS] | 2.67 ± 0.091 kcal/mol | 4.99 ± 0.083 kcal/mol | 4.63 ± 0.13 kcal/mol
KVKIVEVVKDPKTKKYVIKIEVEYDEETKQLTVKIEIVDEKTKKVTTIEVKADSLEEAEEAIKKLLPPGLLS [r1_156_TrROS_Hall] | 1.04 ± 0.074 kcal/mol | 3.28 ± 0.086 kcal/mol | 2.79 ± 0.12 kcal/mol
SAGGSKIPLDNIKVITIMYNPKEGMYWISIRFPNNGKEVVFPYEDAPKILEKFPEIKEIEVYPFPPSAGGSA [r2_159_TrROS] | 2.25 ± 0.11 kcal/mol | 2.76 ± 0.036 kcal/mol | 2.59 ± 0.084 kcal/mol
SAGGSAGGSAGGGPNSVRIEFFFLLPNGYIYRHKFEFNPNGNLEIEPEPVPIPKDDLKPSAGGSAGGSAGGS [r10_280_TrROS] | 2.12 ± 0.16 kcal/mol | 4.189 ± 0.038 kcal/mol | 3.49 ± 0.17 kcal/mol
SAGGSAGGSAGGAKTTTLGSESEEEIRAVAAKLPADSTITTNRPGGTSVITVSPNEIVTNSAGGSAGGSAGG [r7_560_JUSTAS] | 0.144 ± 0.043 kcal/mol | 1.22 ± 0.046 kcal/mol | 0.836 ± 0.055 kcal/mol
SKVVLAHVYVELPNGERRELVVPFDLPPGVTVEELLKALNIPKEVLKKVTIVLVSFDGGPPEVKTVTVTDSA [r9_755_TrMRF] | 1.98 ± 0.057 kcal/mol | 4.17 ± 0.046 kcal/mol | 3.67 ± 0.066 kcal/mol
SAGGSAGGSAKPEPVTIEFPIESPEEIKDFAEELAPPGMKVNHDPEEGLVKIWIPKDDIKESAGGSAGGSAG [r3_186_TrROS] | -0.563 ± 0.098 kcal/mol | 1.59 ± 0.039 kcal/mol | 1.13 ± 0.068 kcal/mol
SAMPVAVIPIDPVSGKLTVTVFDPADPRRAVTVDIPLAAVEAAVGKPLSPEEIAALLLEKGIDVVLIGPSAG [r14_809_TrMRF] | -0.0879 ± 0.32 kcal/mol | 1.96 ± 0.021 kcal/mol | 1.57 ± 0.1 kcal/mol
SAGGKIEVKKVEVFEDGTILAPLTNEDGKEDLVLVVDLEPVLDGDKVYYKAPVKLYKDGKLIAEFDIGSAGG [r13_1007_TrMRF] | -0.335 ± 0.21 kcal/mol | 1.89 ± 0.083 kcal/mol | 1.37 ± 0.19 kcal/mol
SAGGSAGGSEVERLELTVEIDGLRVRVEVERRDGVLVIKVEVEPAPAPPVEVVTEEERLPEGRSAGGSAGGS [r12_710_TrROS_Hall] | -0.0603 ± 0.23 kcal/mol | 2.11 ± 0.14 kcal/mol | 1.54 ± 0.32 kcal/mol
SAGGSAGGKRKIEIHIIIPPGMPPEWRKKAIEIAKWFAKTLAQENNREVEIKIEIFVLDGMPPWSAGGSAGG [r6_204_TrROS] | 2.82 ± 0.19 kcal/mol | 3.71 ± 0.076 kcal/mol | 3.6 ± 0.33 kcal/mol
SSLTLRLRLEFPLPGPLRVRVEVTLHLERDGDRLTLHLEARVRLDPVPPVPPPPAPPVITPEEASRLLAGSA [r9_965_TrMRF] | -0.465 ± 0.56 kcal/mol | 4.22 ± 0.08 kcal/mol | 3.5 ± 0.25 kcal/mol

Record cards, from the list above. Order of values: folding stability dG unfold [1]	folding stability dG unfold [2]	folding stability dG unfold [3]
SAGGSAGGSDTVTLTILVRDPATNRWYLVEVELRRNPDGSLTARARVYDLDTGEWHEETFTLPSAGGSAGGS [r20_229_TrROS_Hall] is entered as 2.9 ± 0.16 kcal/mol	5.29 ± 0.079 kcal/mol	5.04 ± 0.19 kcal/mol
SAGGMTLTLKVDSEEEAKEAVKKLLEEKGINAKLEKITVTKHTVVHPESEAVETVYTVTVDLVIEPKSAGGS [r16_587_JUSTAS] is entered as 1.23 ± 0.14 kcal/mol	3.77 ± 0.11 kcal/mol	3.22 ± 0.21 kcal/mol
